Results are given in words; binding and its absence hold for the method and conditions named. For some assays here: Binding can be weak; no strength is given.
What was measured:
[1] = target: cynomolgus CD73 extracellular domain (ECD) (cynomolgus); experiment: SPR ProteOn
CD73 chimera DS2dmod_3b = experiment: SPR ProteOn, CD73 variant on HTG chip

binding [1]: binds
binding (CD73 chimera DS2dmod_3b): no binding
B1: MEDI9447 (antibody, V domains shown)
VH: EVQLLESGGGLVQPGGSLRLSCAASGFTFSSYAYSWVRQAPGKGLEWVSAISGSGGRTYYADSVKGRFTISRDNSKNTLYLQMNSLRAEDTAVYYCARLGYGRVDEWGRGTLVTVSS
VL: QSVLTQPPSASGTPGQRVTISCSGSLSNIGRNPVNWYQQLPGTAPKLLIYLDNLRLSGVPDRFSGSKSGTSASLAISGLQSEDEADYYCATWDDSHPGWTFGGGTKLTVL

From US20160194407A1
